For at least one compound, name, drawing or mass did not settle the structure.
Target: T1, AmpC β-lactamase (Escherichia coli, UniProt P00811)
T1 construct: made in house; host or cells: E. coli BL21 (DE3)
Assay type: biochemical
Conditions: catalytic efficiency of AmpC on substrate
Experimental: The competitive inhibition of β-lactamase was determined spectrophotometrically using a Varian (Walnut Creek, Calif.) Cary 100 UV-Visible spectrophotometer. β-lactamase activity was followed by measuring the hydrolysis of nitrocefin, [3-(2,4-dinitrostyryl)-(6R, 7R)-7-(2-thienylacetamido)-ceph-3-em-4-carboxylic acid, E-isomer], (Calbiochem, San Diego, Calif.) at 486 nm. Inhibition assays were performed at 25° C. in 50 mM sodium phosphate, 5% DMSO, pH 7.0. […] Penicillin G (Sigma, St. Louis, Mo.) was also used as a substrate to determine KM and kcat.

By UniProt entry, the sequences of proteins in these tests, tags left out. Residues count along the entry.
UniProt P00811, 20-377: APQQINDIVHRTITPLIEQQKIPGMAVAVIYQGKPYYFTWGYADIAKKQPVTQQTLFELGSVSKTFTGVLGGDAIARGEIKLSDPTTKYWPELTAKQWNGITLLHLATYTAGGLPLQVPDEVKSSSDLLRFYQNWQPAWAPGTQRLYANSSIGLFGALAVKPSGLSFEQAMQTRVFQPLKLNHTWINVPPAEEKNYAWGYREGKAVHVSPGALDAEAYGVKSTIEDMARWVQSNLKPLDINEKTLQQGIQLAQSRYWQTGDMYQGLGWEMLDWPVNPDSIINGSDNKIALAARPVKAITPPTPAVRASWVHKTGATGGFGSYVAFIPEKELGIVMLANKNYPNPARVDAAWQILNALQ

## CC1(C)S[C@@H]2[C@H](NC(=O)Cc3ccccc3)C(=O)N2[C@H]1C(=O)O [penicillin G, Penicillin G]
  kcat/KM: 7.2e+06 ± 600000 M⁻¹ s⁻¹

From patent US7183267B2, “β-lactamase inhibitors and methods of use thereof” (priority 2003, dated 2007)
